From doi:10.1101/2022.05.27.493685 come the findings set out here.

Chains of the proteins cited; added tags and fusions are not shown.
UniProt P62960: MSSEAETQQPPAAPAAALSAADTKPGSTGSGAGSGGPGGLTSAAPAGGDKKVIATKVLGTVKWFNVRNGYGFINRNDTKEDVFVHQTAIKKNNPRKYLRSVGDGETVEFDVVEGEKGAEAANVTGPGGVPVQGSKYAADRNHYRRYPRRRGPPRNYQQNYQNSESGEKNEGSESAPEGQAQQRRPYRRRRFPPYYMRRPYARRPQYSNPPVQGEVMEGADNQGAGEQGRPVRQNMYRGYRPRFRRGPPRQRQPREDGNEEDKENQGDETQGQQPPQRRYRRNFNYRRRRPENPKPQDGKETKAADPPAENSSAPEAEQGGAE

These are yes or no findings as the source states them, for the method shown. In cells and extracts the contact can be indirect. Some entries that bind do so weakly or less than the wild type.

The experiment concerns the target YBX1 (Y-box binding protein 1), endogenous in BMSCs (mouse (endogenous in BMSCs)) (UniProt P62960). As to the kind of experiment: co-IP.

B1: FBXO33 (ubiquitin ligase), endogenous in BMSCs (protein, UniProt Q8VE08 1-562)
chain: MLLFLSVPQPRPPGARTRAGAARLVRWRRRQRLRLLQLRRLRGLLRGLRRRPGTGGRRPSRMALCGQAAGAASLPSELIVHIFSFLPAPDRLRASASCSHWRECLFYPALWPQLRICLRVSPAEQPRLEFLMRKCGWFVRELRVEFAAENYLSGGGGPGDGGSGGGTDTGTGGEDGEALQLSSRWLEVLRIYLELVLCVLLSIRNNRNLQKFSLFGDISVVHQQGSLSSTYLSRVDPDGKKIKQIQQLFEEILSNSRQLKWLSCGFMLEIVTPTSLSSLSNPIANTMEHLSLLDNNIPGNSTLITAVELERFVNLRSLALDFCDFTAEMARVLTDSNHVPLQRLSLLVHNASVMLKSLDNMPNDEHWKALSRKSSSLRVYLMVFDIKSEDMLKILKPSIPLERVHFDSYVTCVSGAIVDLISRQYDKFLTHFILMNDMIDTSGFPDLSDNRNEDPLVLLAWRCTKLTLLAIHGYTVWAHNLIAIARLRGSDLKVLQVTEESIDFDQGELADQDVDPVQNLIEQVSLGLGQSWHAVLDIESLSVFTEPNRHFYREMQSFSEDI
Take B1: the binding entry is reported as “binds”.
